Test results reported in paper PMC10589297.
These are yes or no findings as the source states them, for the method shown. Binding seen in cells or lysates may run through a third protein. Some results given as binding are weak or reduced against the parent protein; the word gives no strength.

Biological target: T1, CCCTC binding factor (Ctcf) (mouse (endogenous in E11.5 limb bud cells)) (UniProt Q61164)
T1 sequence: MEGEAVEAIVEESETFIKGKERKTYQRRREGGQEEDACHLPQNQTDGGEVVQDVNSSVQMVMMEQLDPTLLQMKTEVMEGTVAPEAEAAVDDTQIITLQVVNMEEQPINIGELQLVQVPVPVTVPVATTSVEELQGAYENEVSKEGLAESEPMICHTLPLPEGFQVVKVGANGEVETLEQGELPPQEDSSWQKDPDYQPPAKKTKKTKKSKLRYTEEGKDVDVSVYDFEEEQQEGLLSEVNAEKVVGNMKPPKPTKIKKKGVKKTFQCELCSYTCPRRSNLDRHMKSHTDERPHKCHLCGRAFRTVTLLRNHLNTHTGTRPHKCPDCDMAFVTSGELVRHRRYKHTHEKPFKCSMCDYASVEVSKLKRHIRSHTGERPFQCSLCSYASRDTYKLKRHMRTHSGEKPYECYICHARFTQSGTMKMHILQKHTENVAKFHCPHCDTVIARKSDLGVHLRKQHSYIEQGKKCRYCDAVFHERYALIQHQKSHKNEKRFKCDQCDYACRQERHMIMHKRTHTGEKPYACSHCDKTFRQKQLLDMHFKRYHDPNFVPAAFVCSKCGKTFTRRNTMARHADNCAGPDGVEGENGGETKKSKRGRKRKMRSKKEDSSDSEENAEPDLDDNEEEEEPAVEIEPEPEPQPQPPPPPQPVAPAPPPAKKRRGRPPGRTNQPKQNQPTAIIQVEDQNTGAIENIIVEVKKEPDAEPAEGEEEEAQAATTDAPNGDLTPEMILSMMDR
Assay: co-IP; endogenous proteins from E11.5 WT limb bud cells; lysate incubated with anti-hnRNPK or anti-CTCF and Protein G beads; beads incubated in wash buffer with PBS, DNase I, RNase A or both for 1.5 h on ice; western blot

“heterogeneous nuclear ribonucleoprotein K (Hnrnpk) (from UniProt P61979-2 1-464)” was tested, and the binding was “binds”.
